Experimental data taken from the odorant receptor screen of Mainland et al. (2015).
Where “and” joins values, the source holds several entries; their conditions need not be identical. Identical values can stand only once. The list shows a part of the results. Each value is one well over the wells without odorant, computed here; the data are noisy.

How the values were obtained:
Test in all cases: odorant receptor activation (CRE luciferase / Renilla) (fold of no-odor wells); higher = more activation
Conditions in all cases: 100 µM
OR1J2 clone 1443 = test system: OR1J2 clone 1443
OR1J4 clone 1429 = test system: OR1J4 clone 1429
OR1K1 clone 1315 = test system: OR1K1 clone 1315
OR1L1 clone 1379 = test system: OR1L1 clone 1379
OR1L3 clone 1090 = test system: OR1L3 clone 1090
OR1L4 G234R clone 1102 = test system: OR1L4 G234R clone 1102
[1] = test system: OR1L6 Q23K/C150Y/I215T/R221Q/M223I/G234R clone 1539
OR1L8 clone 1088 = test system: OR1L8 clone 1088
OR1M1 clone 1198 = test system: OR1M1 clone 1198
OR1N1 clone 1463 = test system: OR1N1 clone 1463

Compound: CCC(C)=O [2-butanone]
- odorant receptor activation (OR1J2 clone 1443): 1.05
- odorant receptor activation (OR1J4 clone 1429): 1.03
- odorant receptor activation (OR1K1 clone 1315): 1.06
- odorant receptor activation (OR1L1 clone 1379): 0.992
- odorant receptor activation (OR1L3 clone 1090): 28.7
- odorant receptor activation (OR1L4 G234R clone 1102): 17
- odorant receptor activation [1]: 1.13
- odorant receptor activation (OR1L8 clone 1088): 2.7
- odorant receptor activation (OR1M1 clone 1198): 0.992
- odorant receptor activation (OR1N1 clone 1463): 0.846

Compound: CS [methanethiol]
- odorant receptor activation (OR1J2 clone 1443): 1.38
- odorant receptor activation (OR1J4 clone 1429): 1.05
- odorant receptor activation (OR1K1 clone 1315): 0.241
- odorant receptor activation (OR1L1 clone 1379): 0.881
- odorant receptor activation (OR1L3 clone 1090): 1.13
- odorant receptor activation (OR1L4 G234R clone 1102): 1.05
- odorant receptor activation [1]: 1.12
- odorant receptor activation (OR1L8 clone 1088): 0.894
- odorant receptor activation (OR1M1 clone 1198): 1.21
- odorant receptor activation (OR1N1 clone 1463): 0.945

Compound: CCOc1cc(C=O)ccc1O [ethyl vanillin]
- odorant receptor activation (OR1J2 clone 1443): 1.22 and 1.32
- odorant receptor activation (OR1J4 clone 1429): 1.45 and 1.17
- odorant receptor activation (OR1K1 clone 1315): 1.79 and 1.2
- odorant receptor activation (OR1L1 clone 1379): 0.94 and 1.19
- odorant receptor activation (OR1L3 clone 1090): 2.21 and 1.07
- odorant receptor activation (OR1L4 G234R clone 1102): 1.33 and 1.27
- odorant receptor activation [1]: 0.862
- odorant receptor activation (OR1L8 clone 1088): 1.1 and 1.18
- odorant receptor activation (OR1M1 clone 1198): 1.41 and 1.36
- odorant receptor activation (OR1N1 clone 1463): 1.6 and 2.28 and 1.21

Compound: CCCCOC(C)=O [butyl acetate]
- odorant receptor activation (OR1J2 clone 1443): 0.3
- odorant receptor activation (OR1J4 clone 1429): 0.247
- odorant receptor activation (OR1K1 clone 1315): 0.738
- odorant receptor activation (OR1L1 clone 1379): 0.231
- odorant receptor activation (OR1L3 clone 1090): 1.08
- odorant receptor activation (OR1L4 G234R clone 1102): 1.15
- odorant receptor activation [1]: 1.25
- odorant receptor activation (OR1L8 clone 1088): 1.2
- odorant receptor activation (OR1M1 clone 1198): 0.918
- odorant receptor activation (OR1N1 clone 1463): 0.863
